Assay results as given in the supplement of paper PMC10032668.
The list shows a part of the results. The list holds hits alone, and they repeat only in part.

Chains of the proteins cited; added tags and fusions are not shown.
ATP6V1F, Q16864, UniProt Q16864, whole entry: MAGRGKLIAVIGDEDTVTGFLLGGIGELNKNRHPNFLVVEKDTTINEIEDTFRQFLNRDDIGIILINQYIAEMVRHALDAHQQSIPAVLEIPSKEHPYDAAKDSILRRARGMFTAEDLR
DMD, P11532, UniProt P11532, whole entry: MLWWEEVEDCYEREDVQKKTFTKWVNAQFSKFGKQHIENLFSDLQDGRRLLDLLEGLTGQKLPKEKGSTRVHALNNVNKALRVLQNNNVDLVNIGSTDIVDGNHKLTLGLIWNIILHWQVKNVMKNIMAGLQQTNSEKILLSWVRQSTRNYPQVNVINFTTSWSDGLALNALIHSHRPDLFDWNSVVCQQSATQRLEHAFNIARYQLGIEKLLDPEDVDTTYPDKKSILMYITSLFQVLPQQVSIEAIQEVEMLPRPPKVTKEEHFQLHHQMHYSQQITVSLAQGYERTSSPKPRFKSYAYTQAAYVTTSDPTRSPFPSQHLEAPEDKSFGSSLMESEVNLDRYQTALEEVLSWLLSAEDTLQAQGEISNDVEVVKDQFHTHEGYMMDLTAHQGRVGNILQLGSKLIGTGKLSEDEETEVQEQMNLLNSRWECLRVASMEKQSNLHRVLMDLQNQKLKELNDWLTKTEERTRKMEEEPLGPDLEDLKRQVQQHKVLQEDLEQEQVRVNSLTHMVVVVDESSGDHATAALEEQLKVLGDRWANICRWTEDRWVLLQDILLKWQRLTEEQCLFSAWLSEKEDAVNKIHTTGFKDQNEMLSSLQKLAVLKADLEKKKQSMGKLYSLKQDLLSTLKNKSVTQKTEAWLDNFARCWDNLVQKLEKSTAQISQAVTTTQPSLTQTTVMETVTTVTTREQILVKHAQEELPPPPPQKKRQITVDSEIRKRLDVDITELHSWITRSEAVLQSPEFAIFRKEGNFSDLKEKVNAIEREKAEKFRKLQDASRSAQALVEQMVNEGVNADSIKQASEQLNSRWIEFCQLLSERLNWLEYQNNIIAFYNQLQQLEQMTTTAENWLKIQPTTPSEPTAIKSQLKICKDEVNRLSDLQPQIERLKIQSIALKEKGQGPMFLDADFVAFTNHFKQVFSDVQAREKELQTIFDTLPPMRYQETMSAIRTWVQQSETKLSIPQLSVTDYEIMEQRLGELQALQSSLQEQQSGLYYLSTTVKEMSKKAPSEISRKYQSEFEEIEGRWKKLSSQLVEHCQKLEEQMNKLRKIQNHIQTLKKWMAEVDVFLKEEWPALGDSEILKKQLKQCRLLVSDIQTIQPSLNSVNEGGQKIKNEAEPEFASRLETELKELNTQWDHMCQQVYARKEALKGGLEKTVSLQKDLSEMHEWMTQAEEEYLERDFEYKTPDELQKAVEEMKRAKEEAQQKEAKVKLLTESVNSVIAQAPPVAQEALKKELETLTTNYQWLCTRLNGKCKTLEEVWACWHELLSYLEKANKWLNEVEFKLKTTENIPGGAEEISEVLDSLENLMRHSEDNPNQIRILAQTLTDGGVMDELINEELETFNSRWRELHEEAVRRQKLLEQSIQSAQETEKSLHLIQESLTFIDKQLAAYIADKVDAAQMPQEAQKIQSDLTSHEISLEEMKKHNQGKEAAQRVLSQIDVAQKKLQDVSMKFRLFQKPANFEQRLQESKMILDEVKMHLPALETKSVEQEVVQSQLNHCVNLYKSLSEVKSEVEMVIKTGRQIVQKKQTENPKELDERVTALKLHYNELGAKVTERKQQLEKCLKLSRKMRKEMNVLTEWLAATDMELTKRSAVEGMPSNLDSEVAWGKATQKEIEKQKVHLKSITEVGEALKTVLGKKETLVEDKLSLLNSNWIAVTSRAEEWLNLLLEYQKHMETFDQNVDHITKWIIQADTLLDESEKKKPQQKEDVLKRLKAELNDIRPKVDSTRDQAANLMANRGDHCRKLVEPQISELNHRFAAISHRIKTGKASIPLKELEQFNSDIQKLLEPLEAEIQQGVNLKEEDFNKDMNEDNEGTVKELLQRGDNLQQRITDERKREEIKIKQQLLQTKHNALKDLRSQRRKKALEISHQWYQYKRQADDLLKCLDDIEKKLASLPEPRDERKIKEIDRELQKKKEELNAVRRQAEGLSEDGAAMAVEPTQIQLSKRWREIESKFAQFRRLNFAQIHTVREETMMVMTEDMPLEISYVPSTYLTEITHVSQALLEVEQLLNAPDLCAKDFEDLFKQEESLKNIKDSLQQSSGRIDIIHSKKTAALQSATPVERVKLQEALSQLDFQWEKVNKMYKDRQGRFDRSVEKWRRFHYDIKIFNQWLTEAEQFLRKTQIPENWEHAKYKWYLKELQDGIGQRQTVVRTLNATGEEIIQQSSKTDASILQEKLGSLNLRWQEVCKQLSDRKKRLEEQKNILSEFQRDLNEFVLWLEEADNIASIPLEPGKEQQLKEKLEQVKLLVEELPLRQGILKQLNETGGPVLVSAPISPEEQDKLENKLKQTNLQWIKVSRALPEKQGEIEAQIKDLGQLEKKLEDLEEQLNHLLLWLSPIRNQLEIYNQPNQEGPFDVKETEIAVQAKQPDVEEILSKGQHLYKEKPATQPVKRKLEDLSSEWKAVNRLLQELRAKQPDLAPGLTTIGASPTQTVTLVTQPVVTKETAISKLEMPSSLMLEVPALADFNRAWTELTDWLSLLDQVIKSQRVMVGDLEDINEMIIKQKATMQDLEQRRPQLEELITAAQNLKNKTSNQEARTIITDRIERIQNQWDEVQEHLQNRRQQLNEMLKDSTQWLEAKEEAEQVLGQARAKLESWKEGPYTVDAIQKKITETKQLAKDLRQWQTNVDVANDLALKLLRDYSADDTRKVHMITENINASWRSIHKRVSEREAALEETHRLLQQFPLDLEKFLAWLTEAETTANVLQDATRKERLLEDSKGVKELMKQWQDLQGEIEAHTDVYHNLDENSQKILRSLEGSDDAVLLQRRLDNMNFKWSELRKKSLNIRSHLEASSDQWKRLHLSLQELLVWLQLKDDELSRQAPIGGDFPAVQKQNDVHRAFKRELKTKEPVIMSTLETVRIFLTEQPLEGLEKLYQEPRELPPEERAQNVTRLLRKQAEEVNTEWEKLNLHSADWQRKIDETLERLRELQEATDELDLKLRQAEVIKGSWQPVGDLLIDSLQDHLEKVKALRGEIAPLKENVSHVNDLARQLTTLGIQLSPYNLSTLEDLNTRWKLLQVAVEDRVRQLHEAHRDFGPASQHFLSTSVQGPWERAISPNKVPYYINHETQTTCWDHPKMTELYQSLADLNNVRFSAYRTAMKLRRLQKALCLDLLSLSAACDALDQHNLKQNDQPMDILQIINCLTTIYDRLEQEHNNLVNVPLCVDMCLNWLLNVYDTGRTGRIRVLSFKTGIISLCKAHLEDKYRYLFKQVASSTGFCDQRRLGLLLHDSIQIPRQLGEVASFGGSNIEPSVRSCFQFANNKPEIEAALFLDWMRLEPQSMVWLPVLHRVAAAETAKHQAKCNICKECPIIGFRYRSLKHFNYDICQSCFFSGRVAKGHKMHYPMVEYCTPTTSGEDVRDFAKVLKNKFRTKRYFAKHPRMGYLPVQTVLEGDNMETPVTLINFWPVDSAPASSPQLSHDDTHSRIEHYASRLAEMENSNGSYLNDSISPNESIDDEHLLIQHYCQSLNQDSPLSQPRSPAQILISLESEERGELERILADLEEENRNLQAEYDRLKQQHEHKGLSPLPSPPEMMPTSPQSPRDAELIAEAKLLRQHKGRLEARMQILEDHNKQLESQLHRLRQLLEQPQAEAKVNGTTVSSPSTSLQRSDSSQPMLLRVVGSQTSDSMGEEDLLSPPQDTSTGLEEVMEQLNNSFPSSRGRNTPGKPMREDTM
NUP153, P49790, UniProt P49790, whole entry: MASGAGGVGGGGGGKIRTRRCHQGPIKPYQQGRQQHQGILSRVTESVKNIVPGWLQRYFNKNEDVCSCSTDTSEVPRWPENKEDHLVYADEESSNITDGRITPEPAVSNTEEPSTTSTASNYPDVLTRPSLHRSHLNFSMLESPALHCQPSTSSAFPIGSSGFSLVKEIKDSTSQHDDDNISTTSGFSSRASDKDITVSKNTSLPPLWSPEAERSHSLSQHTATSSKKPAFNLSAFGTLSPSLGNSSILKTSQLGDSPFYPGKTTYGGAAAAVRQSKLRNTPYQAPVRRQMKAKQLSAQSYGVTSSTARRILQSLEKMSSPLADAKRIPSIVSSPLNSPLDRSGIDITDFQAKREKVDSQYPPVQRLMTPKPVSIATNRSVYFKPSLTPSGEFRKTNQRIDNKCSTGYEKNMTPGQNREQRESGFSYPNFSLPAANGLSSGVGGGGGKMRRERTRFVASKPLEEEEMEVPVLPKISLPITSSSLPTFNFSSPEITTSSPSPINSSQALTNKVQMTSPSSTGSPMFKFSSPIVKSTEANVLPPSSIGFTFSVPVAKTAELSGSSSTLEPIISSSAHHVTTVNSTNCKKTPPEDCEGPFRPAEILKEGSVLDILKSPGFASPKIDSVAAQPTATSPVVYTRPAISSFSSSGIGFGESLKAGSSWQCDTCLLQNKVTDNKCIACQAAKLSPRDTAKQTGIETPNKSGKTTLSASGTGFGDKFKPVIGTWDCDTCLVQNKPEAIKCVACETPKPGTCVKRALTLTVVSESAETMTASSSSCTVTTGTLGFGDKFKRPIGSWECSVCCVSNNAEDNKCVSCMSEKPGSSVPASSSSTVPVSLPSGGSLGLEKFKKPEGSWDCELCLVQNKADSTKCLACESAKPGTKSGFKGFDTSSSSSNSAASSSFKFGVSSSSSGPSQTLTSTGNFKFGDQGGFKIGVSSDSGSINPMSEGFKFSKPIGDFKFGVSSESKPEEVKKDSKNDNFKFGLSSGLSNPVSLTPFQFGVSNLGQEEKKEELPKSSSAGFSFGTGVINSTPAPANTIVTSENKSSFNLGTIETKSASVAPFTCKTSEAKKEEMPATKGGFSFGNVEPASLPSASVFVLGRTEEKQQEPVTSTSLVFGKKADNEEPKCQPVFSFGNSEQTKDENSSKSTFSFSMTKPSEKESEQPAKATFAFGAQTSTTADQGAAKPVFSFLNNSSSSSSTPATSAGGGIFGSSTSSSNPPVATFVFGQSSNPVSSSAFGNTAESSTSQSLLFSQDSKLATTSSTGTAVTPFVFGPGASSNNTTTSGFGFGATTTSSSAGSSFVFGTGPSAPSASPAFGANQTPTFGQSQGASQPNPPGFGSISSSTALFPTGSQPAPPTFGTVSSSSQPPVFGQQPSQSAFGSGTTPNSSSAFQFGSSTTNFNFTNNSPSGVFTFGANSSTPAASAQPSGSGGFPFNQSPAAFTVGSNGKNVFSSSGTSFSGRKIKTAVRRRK
STAT3, P40763, UniProt P40763, whole entry: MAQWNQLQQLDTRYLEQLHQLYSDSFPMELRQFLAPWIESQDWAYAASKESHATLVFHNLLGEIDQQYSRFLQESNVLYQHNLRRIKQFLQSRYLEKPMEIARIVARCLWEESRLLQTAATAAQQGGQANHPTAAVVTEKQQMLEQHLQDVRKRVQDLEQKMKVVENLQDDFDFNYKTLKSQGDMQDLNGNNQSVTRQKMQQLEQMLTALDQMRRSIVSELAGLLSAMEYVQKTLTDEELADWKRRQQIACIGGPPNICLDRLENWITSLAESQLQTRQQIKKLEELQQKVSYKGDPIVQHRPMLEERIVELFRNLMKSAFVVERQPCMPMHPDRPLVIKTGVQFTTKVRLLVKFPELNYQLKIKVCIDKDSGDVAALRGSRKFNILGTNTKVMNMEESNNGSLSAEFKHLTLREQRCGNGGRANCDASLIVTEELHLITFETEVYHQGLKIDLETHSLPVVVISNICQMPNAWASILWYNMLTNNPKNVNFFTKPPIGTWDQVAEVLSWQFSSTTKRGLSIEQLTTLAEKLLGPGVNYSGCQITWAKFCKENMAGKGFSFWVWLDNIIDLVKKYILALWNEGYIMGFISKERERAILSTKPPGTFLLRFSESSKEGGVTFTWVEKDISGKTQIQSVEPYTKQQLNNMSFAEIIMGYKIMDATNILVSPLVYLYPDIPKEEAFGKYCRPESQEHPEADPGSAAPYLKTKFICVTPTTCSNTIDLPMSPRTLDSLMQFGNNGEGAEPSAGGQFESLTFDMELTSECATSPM
TUBG1, P23258, UniProt P23258, whole entry: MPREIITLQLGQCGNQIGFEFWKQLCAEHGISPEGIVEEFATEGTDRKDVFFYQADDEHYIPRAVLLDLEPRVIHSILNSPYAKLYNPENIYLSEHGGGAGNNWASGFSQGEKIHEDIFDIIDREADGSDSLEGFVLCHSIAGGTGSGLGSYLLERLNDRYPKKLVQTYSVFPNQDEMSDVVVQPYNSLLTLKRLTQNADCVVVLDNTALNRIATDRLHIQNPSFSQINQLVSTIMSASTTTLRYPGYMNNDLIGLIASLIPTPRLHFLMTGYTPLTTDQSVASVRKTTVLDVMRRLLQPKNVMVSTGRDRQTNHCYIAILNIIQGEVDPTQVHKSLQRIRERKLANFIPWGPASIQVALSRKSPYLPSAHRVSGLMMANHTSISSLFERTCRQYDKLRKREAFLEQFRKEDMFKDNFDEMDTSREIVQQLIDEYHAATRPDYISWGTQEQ

How the values were obtained:
Assay in all cases: PRISMA enrichment of interactor (LFQ) in peptide spot vs all other peptide spots (log2 fold change); higher = stronger / more specific binding of the interactor to the peptide
[1] = target: AK4, P27144
Description: (§1)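 PRISMA: 221 full-length sORF-encoded peptides (3-15 aa), plus SOS1/GLUT1 control peptides, were spot-synthesized on cellulose membranes in triplicate. Membranes were incubated with HEK293T lysate, and bound proteins were identified by LC-MS/MS with LFQ. Enrichment is the log2 fold change versus all other peptide spots; only significant interactors are listed (cutoff c=6, x0=2.8).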

[2] = target: ATP6V1F, Q16864
Description: as §1

[3] = target: BMP15, O95972
Description: as §1

[4] = target: CTNND1, O60716
Description: as §1

[5] = target: DHRS7B, Q6IAN0
Description: as §1

[6] = target: DIMT1, Q9UNQ2
Description: as §1

[7] = target: DMD, P11532
Description: as §1

[8] = target: DUSP3, P51452
Description: as §1

[9] = target: LARP4, Q71RC2
Description: as §1

[10] = target: LIG3, P49916
Description: as §1

[11] = target: MCU, Q8NE86
Description: as §1

[12] = target: METTL7A, Q9H8H3
Description: as §1

[13] = target: MICOS13, Q5XKP0
Description: as §1

[14] = target: MRPL45, Q9BRJ2
Description: as §1

[15] = target: MRPS35, P82673
Description: as §1

[16] = target: NAMPT, P43490
Description: as §1

[17] = target: NECAP2, Q9NVZ3
Description: as §1

[18] = target: NUBP2, Q9Y5Y2
Description: as §1

[19] = target: NUP153, P49790
Description: as §1

[20] = target: NXF1, Q9UBU9
Description: as §1

[21] = target: ORC4, O43929
Description: as §1

[22] = target: RCN2, Q14257
Description: as §1

[23] = target: RELCH, Q9P260
Description: as §1

[24] = target: SCPEP1, Q9HB40
Description: as §1

[25] = target: STAT3, P40763
Description: as §1

[26] = target: TFB1M, Q8WVM0
Description: as §1

[27] = target: TUBG1, P23258
Description: as §1

[28] = target: UFL1, O94874
Description: as §1

[29] = target: YLPM1, P49750
Description: as §1

[30] = target: AFDN, P55196
Description: as §1

[31] = target: CENPE, Q02224
Description: as §1

[32] = target: LAP3, P28838
Description: as §1

[33] = target: MRPL24, Q96A35
Description: as §1

[34] = target: NUB1, Q9Y5A7
Description: as §1

[35] = target: NUP160, Q12769
Description: as §1

[36] = target: NUP188, Q5SRE5
Description: as §1

[37] = target: RIOK2, Q9BVS4
Description: as §1

[38] = target: AHCYL1, O43865
Description: as §1

[39] = target: AP2A1, O95782
Description: as §1

[40] = target: GOLGB1, Q14789
Description: as §1

[41] = target: NAP1L1, P55209
Description: as §1

[42] = target: NTHL1, P78549
Description: as §1

[43] = target: AHSA1, O95433
Description: as §1

[44] = target: FDX1, P10109
Description: as §1

[45] = target: PFKP, Q01813
Description: as §1

B1: SMAD1 (peptide)
chain: MVISTLLDFKLRS
PRISMA enrichment of interactor (log2) [1]: 5.84
PRISMA enrichment of interactor (log2) [2]: 4.58
PRISMA enrichment of interactor (log2) [3]: 8.57
PRISMA enrichment of interactor (log2) [4]: 6.07
PRISMA enrichment of interactor (log2) [5]: 4.4
PRISMA enrichment of interactor (log2) [6]: 4.87
PRISMA enrichment of interactor (log2) [7]: 8.24
PRISMA enrichment of interactor (log2) [8]: 5.51
PRISMA enrichment of interactor (log2) [9]: 7.58
PRISMA enrichment of interactor (log2) [10]: 4.16
PRISMA enrichment of interactor (log2) [11]: 6.43
PRISMA enrichment of interactor (log2) [12]: 9.47
PRISMA enrichment of interactor (log2) [13]: 4.21
PRISMA enrichment of interactor (log2) [14]: 11.1
PRISMA enrichment of interactor (log2) [15]: 5.61
PRISMA enrichment of interactor (log2) [16]: 6.52
PRISMA enrichment of interactor (log2) [17]: 3.99
PRISMA enrichment of interactor (log2) [18]: 5.14
PRISMA enrichment of interactor (log2) [19]: 5.19
PRISMA enrichment of interactor (log2) [20]: 5.8
PRISMA enrichment of interactor (log2) [21]: 4.56
PRISMA enrichment of interactor (log2) [22]: 5.74
PRISMA enrichment of interactor (log2) [23]: 5.86
PRISMA enrichment of interactor (log2) [24]: 6.04
PRISMA enrichment of interactor (log2) [25]: 6.33
PRISMA enrichment of interactor (log2) [26]: 4.63
PRISMA enrichment of interactor (log2) [27]: 5.09
PRISMA enrichment of interactor (log2) [28]: 4.53
PRISMA enrichment of interactor (log2) [29]: 4.3

B2: SLC38A1 (peptide)
chain: MTPIRDPQRRCMSM
PRISMA enrichment of interactor (log2) [30]: 6.76
PRISMA enrichment of interactor (log2) [31]: 5.13
PRISMA enrichment of interactor (log2) [32]: 5.13
PRISMA enrichment of interactor (log2) [33]: 4.75
PRISMA enrichment of interactor (log2) [34]: 7.05
PRISMA enrichment of interactor (log2) [35]: 7.78
PRISMA enrichment of interactor (log2) [36]: 5.5
PRISMA enrichment of interactor (log2) [37]: 4.64

B3: ABLIM1 (peptide)
chain: MHVALAELRREA
PRISMA enrichment of interactor (log2) [38]: 4.41
PRISMA enrichment of interactor (log2) [39]: 4.63
PRISMA enrichment of interactor (log2) [40]: 7.3
PRISMA enrichment of interactor (log2) [41]: 4.87
PRISMA enrichment of interactor (log2) [42]: 4.74

B4: CNOT4 (peptide)
chain: MVARLAVEPTES
PRISMA enrichment of interactor (log2) [43]: 5.47
PRISMA enrichment of interactor (log2) [44]: 4.86
PRISMA enrichment of interactor (log2) [45]: 4.56
